Reference: US10159726B2, “Peptides, combination of peptides and scaffolds for use in immunotherapeutic treatment of various cancers” (Immatics Biotechnologies GmbH, priority 2015, dated 2018)

Experiments:
[1] = system: source genes of selected peptides; assay: Expression profiling of source genes by in-house RNAseq, tumor vs normal tissues (target coverage); set-up: species or system human; conditions: for Target coverage, over-expression of source gene, AML: AML (N = 7); for Target coverage, over-expression of source gene, AML / Target coverage, over-expression of source gene, BRCA / Target coverage, over-expression of source gene, CLL / Target coverage, over-expression of source gene, CRC / Target coverage, over-expression of source gene, GB / Target coverage, over-expression of source gene, HCC / Target coverage, over-expression of source gene, OC / Target coverage, over-expression of source gene, OSCAR / Target coverage, over-expression of source gene, PC / Target coverage, over-expression of source gene, RCC / Target coverage, over-expression of source gene, SCLC / Target coverage, over-expression of source gene, pNSCLC: share of tumors with more than 1.5-fold higher expression than highest relevant normal tissue, in-house RNASeq; for Target coverage, over-expression of source gene, BRCA: BRCA (N = 10); for Target coverage, over-expression of source gene, CLL: CLL (N = 10); for Target coverage, over-expression of source gene, CRC: CRC (N = 20); for Target coverage, over-expression of source gene, GB: GB (N = 24); for Target coverage, over-expression of source gene, HCC: HCC (N = 15); for Target coverage, over-expression of source gene, OC: OC (N = 12); for Target coverage, over-expression of source gene, OSCAR: OSCAR (N = 11); for Target coverage, over-expression of source gene, PC: PC (N = 26); for Target coverage, over-expression of source gene, RCC: RCC (N = 10); for Target coverage, over-expression of source gene, SCLC: SCLC (N = 10); for Target coverage for source genes of selected peptides, GBC_CCC (N = 10): gallbladder adenocarcinoma and cholangiocarcinoma; for Target coverage for source genes of selected peptides, GBC_CCC (N = 10) / Target coverage for source genes of selected peptides, GC (N = 11) / Target coverage for source genes of selected peptides, HNSCC (N = 10) / Target coverage for source genes of selected peptides, MEL (N = 10) / Target coverage for source genes of selected peptides, NHL (N = 10) / Target coverage for source genes of selected peptides, PCA (n = 10) / Target coverage for source genes of selected peptides, UBC (N = 10) / Target coverage for source genes of selected peptides, UTC (N = 10): share of tumors with more than 1.5-fold higher expression than the highest-expressing relevant normal tissue, in-house RNAseq; for Target coverage for source genes of selected peptides, GC (N = 11): gastric cancer; for Target coverage for source genes of selected peptides, HNSCC (N = 10): head and neck small cell carcinoma; for Target coverage for source genes of selected peptides, MEL (N = 10): melanoma; for Target coverage for source genes of selected peptides, NHL (N = 10): non-Hodgkin lymphoma; for Target coverage, over-expression of source gene, pNSCLC: pNSCLC (N = 11); for Target coverage for source genes of selected peptides, PCA (n = 10): prostate cancer and benign prostate hyperplasia; for Target coverage for source genes of selected peptides, UBC (N = 10): urinary bladder cancer; for Target coverage for source genes of selected peptides, UTC (N = 10): uterine cancer
[2] = system: HLA-A*24 molecules of primary tumors; assay: Identification and relative LC-MS quantitation of HLA-A*24 tumor-associated peptides presented on tissue samples (XPRESIDENT presentation profiles); set-up: species or system human; conditions: for ENTITIES: Table 9A: selected HLA-A*24-binding tumor-associated peptides, cancer entities on which the peptide was found presented; for Peptide Presentation on cancer entities: Table 9B: selected HLA-A*24 peptides, presentation on additional cancer entities

Row | Substance | Target coverage, over-expression of source gene, AML [1] | Target coverage, over-expression of source gene, BRCA [1] | Target coverage, over-expression of source gene, CLL [1] | Target coverage, over-expression of source gene, CRC [1] | Target coverage, over-expression of source gene, GB [1] | Target coverage, over-expression of source gene, HCC [1] | Target coverage, over-expression of source gene, OC [1] | Target coverage, over-expression of source gene, OSCAR [1] | Target coverage, over-expression of source gene, PC [1] | Target coverage, over-expression of source gene, RCC [1] | Target coverage, over-expression of source gene, SCLC [1] | Target coverage, over-expression of source gene, pNSCLC [1] | ENTITIES [2] | Peptide Presentation on cancer entities [2] | also measured
1 | 204: peptide found in ARID2 (gene looked up) (EYLSTCSKL; listed as Homo sapiens) [compound 204] | II (20-49% = II) | II (20-49% = II) | I (<19% over-expression = I) | I (<19% over-expression = I) | I (<19% over-expression = I) | I (<19% over-expression = I) | II (20-49% = II) | I (<19% over-expression = I) | I (<19% over-expression = I) | I (<19% over-expression = I) | III (50-69% = III) | I (<19% over-expression = I) | NSCLC, HCC | PCA | Target coverage for source genes of selected peptides, GBC_CCC (N = 10) [1]: I (<19% over-expression = I); Target coverage for source genes of selected peptides, GC (N = 11) [1]: I (<19% over-expression = I); Target coverage for source genes of selected peptides, HNSCC (N = 10) [1]: II (20-49% = II); Target coverage for source genes of selected peptides, MEL (N = 10) [1]: I (<19% over-expression = I); Target coverage for source genes of selected peptides, NHL (N = 10) [1]: II (20-49% = II); Target coverage for source genes of selected peptides, PCA (n = 10) [1]: II (20-49% = II); Target coverage for source genes of selected peptides, UBC (N = 10) [1]: I (<19% over-expression = I); Target coverage for source genes of selected peptides, UTC (N = 10) [1]: IV (>70% = IV)
2 | 212: peptide found in SGK3 (gene looked up) (SYAPPSEDLF; listed as Homo sapiens) [compound 212] | I (<19% over-expression = I) | II (20-49% = II) | I (<19% over-expression = I) | I (<19% over-expression = I) | I (<19% over-expression = I) | I (<19% over-expression = I) | I (<19% over-expression = I) | I (<19% over-expression = I) | I (<19% over-expression = I) | I (<19% over-expression = I) | I (<19% over-expression = I) | I (<19% over-expression = I) | – | NSCLC | –
3 | 213: peptide found in SGK3 (gene looked up) (SYAPPSEDLFL; listed as Homo sapiens) [compound 213] | I (<19% over-expression = I) | II (20-49% = II) | I (<19% over-expression = I) | I (<19% over-expression = I) | I (<19% over-expression = I) | I (<19% over-expression = I) | I (<19% over-expression = I) | I (<19% over-expression = I) | I (<19% over-expression = I) | I (<19% over-expression = I) | I (<19% over-expression = I) | I (<19% over-expression = I) | – | NSCLC | –
4 | 220: peptide found in DCLRE1C (gene looked up) (SYSEIKDFL; listed as Homo sapiens) [compound 220] | I (<19% over-expression = I) | I (<19% over-expression = I) | IV (>70% = IV) | I (<19% over-expression = I) | I (<19% over-expression = I) | I (<19% over-expression = I) | I (<19% over-expression = I) | I (<19% over-expression = I) | I (<19% over-expression = I) | I (<19% over-expression = I) | I (<19% over-expression = I) | I (<19% over-expression = I) | – | NSCLC | –
5 | 287: peptide found in VANGL1 (gene looked up) (IYNPNLLTASKF; listed as Homo sapiens) [compound 287] | I (<19% over-expression = I) | III (50-69% = III) | I (<19% over-expression = I) | I (<19% over-expression = I) | I (<19% over-expression = I) | I (<19% over-expression = I) | III (50-69% = III) | III (50-69% = III) | I (<19% over-expression = I) | I (<19% over-expression = I) | I (<19% over-expression = I) | I (<19% over-expression = I) | – | NSCLC | –
6 | 304: peptide found in PARP11 (gene looked up) (EYNEVANLF; listed as Homo sapiens) [compound 304] | I (<19% over-expression = I) | I (<19% over-expression = I) | I (<19% over-expression = I) | I (<19% over-expression = I) | II (20-49% = II) | I (<19% over-expression = I) | I (<19% over-expression = I) | I (<19% over-expression = I) | I (<19% over-expression = I) | I (<19% over-expression = I) | I (<19% over-expression = I) | I (<19% over-expression = I) | HCC, NSCLC, GC, RCC, GB, PCA | – | Target coverage for source genes of selected peptides, GBC_CCC (N = 10) [1]: I (<19% over-expression = I); Target coverage for source genes of selected peptides, GC (N = 11) [1]: I (<19% over-expression = I); Target coverage for source genes of selected peptides, HNSCC (N = 10) [1]: I (<19% over-expression = I); Target coverage for source genes of selected peptides, MEL (N = 10) [1]: I (<19% over-expression = I); Target coverage for source genes of selected peptides, NHL (N = 10) [1]: I (<19% over-expression = I); Target coverage for source genes of selected peptides, PCA (n = 10) [1]: III (50-69% = III); Target coverage for source genes of selected peptides, UBC (N = 10) [1]: I (<19% over-expression = I); Target coverage for source genes of selected peptides, UTC (N = 10) [1]: I (<19% over-expression = I)
7 | 308: peptide found in CYP2S1 (gene looked up) (TFDGHGVFF; listed as Homo sapiens) [compound 308] | I (<19% over-expression = I) | I (<19% over-expression = I) | I (<19% over-expression = I) | II (20-49% = II) | I (<19% over-expression = I) | I (<19% over-expression = I) | I (<19% over-expression = I) | II (20-49% = II) | I (<19% over-expression = I) | I (<19% over-expression = I) | I (<19% over-expression = I) | I (<19% over-expression = I) | NSCLC, GC | – | –

For part of these data: Expression values are those of the mRNA of the gene that encodes the peptide; a gene is named only where it was looked up.
